This is one part of the list.

This experiment has as its target T1, OsSMF1 (Oryza sativa, UniProt Q6ZLB0 1-436).
T1 sequence: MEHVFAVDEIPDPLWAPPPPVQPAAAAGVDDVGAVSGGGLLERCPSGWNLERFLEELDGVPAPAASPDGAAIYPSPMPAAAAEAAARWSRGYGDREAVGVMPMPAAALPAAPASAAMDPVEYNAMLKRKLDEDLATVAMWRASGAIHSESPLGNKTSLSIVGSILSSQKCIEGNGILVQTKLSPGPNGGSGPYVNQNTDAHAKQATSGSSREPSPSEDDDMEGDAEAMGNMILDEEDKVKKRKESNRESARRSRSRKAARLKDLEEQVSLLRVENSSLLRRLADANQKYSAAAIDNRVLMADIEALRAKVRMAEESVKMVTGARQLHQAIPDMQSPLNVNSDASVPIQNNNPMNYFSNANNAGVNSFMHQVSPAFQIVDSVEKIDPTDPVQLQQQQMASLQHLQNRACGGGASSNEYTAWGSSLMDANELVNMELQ
Nature of the experiment: protein-binding microarray (RPBM); PBS, 2% BSA, 51.3 ng/ul salmon testes DNA, 50 uM zinc acetate, 200 nM TF, 25 C, 1 h; high values mean tight binding. To be noted: protein: recombinant; tags: N-terminal polyhistidine and DsRed monomer fusion (pET32a); chain copies: 2; label: CyDye5-dUTP incorporated in the synthesized complementary strand; 3' TTTTT single-stranded linker to array surface; dsDNA, one strand shown. Summed up: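 Transcription factors, each fused N-terminally to a polyhistidine tag and DsRed, were expressed in E. coli BL21-CodonPlus and purified on Ni–NTA. A custom Agilent array was made double-stranded by primer extension with Cy5-dUTP and blocked with 2% BSA. It was incubated with 200 nM protein in PBS, 2% BSA, salmon testes DNA and 50 µM zinc acetate at 25 °C for 1 h, then washed. The binding signal is per-feature fluorescence intensity (arbitrary units) read on an Axon 4000B scanner.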
For “ATCTCTCATAAATAGAGGGGCGTGCCTGTTGTAATCGCATCGGAGTCACCTAGTGCAG”, the binding signal is 3680 fluorescence intensity (a.u.).

Turning to “TCTCTCTCTCGTGCGTCACCTCCTCGCGTGCTCAGCGCCGCGGAGTCACCTAGTGCAG”, the binding signal was 3690 fluorescence intensity (a.u.).

“GAGCTACATGTTGTATTCCAGATCGCCAGACACGCATGCACGGAGTCACCTAGTGCAG”: the binding signal was 25300 fluorescence intensity (a.u.).

On to “GGTGGTAAAATTAACATGCAAATCTATGTGAGTACTTTGGCGGAGTCACCTAGTGCAG”, for which the binding signal is 27300 fluorescence intensity (a.u.).

As for “GCGATTGCGTCGACTCCACCAATGGTGTCGGATACCGCTGCGGAGTCACCTAGTGCAG”, the binding signal was 35300 fluorescence intensity (a.u.).

For the sequence “GTTGTATATGTAATTGATGATGCACTGTCTGAACTTCAGACGGAGTCACCTAGTGCAG”, the binding signal is 4040 fluorescence intensity (a.u.).

For “TCGCTGCATGAGCCCATGGCGGACACGTCGCCTCGCCACCCGGAGTCACCTAGTGCAG”, the binding signal is 7180 fluorescence intensity (a.u.).

As to “ATACGTGCCAAGTTTTACTGATTATATCACTTATTAATTTCGGAGTCACCTAGTGCAG”, the binding signal is 4430 fluorescence intensity (a.u.).

Take “AATTCTTTCTATATGGGTCTCACTTACTCATGGGTGTCACCGGAGTCACCTAGTGCAG”: the binding signal was 4280 fluorescence intensity (a.u.).

Consider “CACCTTCTGCCATCGATCGCTAGGCAAGAAGCTAAGCTAGCGGAGTCACCTAGTGCAG”, for which the binding signal was 3320 fluorescence intensity (a.u.).

Turning to “ATCAAGGCTCACCGGATTCGAGCCCAATACGGACTCTGCTCGGAGTCACCTAGTGCAG”, the binding signal was 36100 fluorescence intensity (a.u.).

With “TCTCCTCGTTGGCCTTGACGGTGATGACGCCCTCTCAACGCGGAGTCACCTAGTGCAG”, the binding signal is 3750 fluorescence intensity (a.u.).

For the sequence “CCGCTCCCCGTCATTCTCACACCAAACATCTCCATCTCAACGGAGTCACCTAGTGCAG”, the binding signal is 4100 fluorescence intensity (a.u.).

For the sequence “GATGAACCTAAGTGACACCGCAGTCCAAGTCACCAGTGTACGGAGTCACCTAGTGCAG”, the binding signal was 3890 fluorescence intensity (a.u.).

Regarding “AGTTTACTCCAGCTTCTTAACTTCTTGATACTGACTCACACGGAGTCACCTAGTGCAG”, the binding signal is 5710 fluorescence intensity (a.u.).

On to “ACATCCTGAGGCATAAATAGCAGAAAACCACAAGTCGGGCCGGAGTCACCTAGTGCAG”, for which the binding signal was 23800 fluorescence intensity (a.u.).

As for “AGTCGCACATGTCCCACAAAACCACGTGAGTTTCCGTCAGCGGAGTCACCTAGTGCAG”, the binding signal was 3470 fluorescence intensity (a.u.).

“AAACCCGCCCAGATCCTACTGAATTGCGTCATCCCACGATCGGAGTCACCTAGTGCAG”: the binding signal is 5290 fluorescence intensity (a.u.).

As for “GGAATCTTGTGATAAACTTATAAAATCATGAATTCCTTCACGGAGTCACCTAGTGCAG”, the binding signal was 12400 fluorescence intensity (a.u.).

“GGACAGTCATGCACAACGCAAACGGCGACACGTAAGTTTTCGGAGTCACCTAGTGCAG”: the binding signal was 6800 fluorescence intensity (a.u.).

On to “TAAAATCTTGCTCTCTTCTAATATGATGACGTGTAATTTTCGGAGTCACCTAGTGCAG”, for which the binding signal was 17600 fluorescence intensity (a.u.).

Take “CGTCGCCGCAGTTTAATTGGCAGCTCACACACGCACGAGCCGGAGTCACCTAGTGCAG”: the binding signal was 24500 fluorescence intensity (a.u.).

Consider “GAATCTACGAGATTTGGATATTTGGATATTTTCCTTCTGACGGAGTCACCTAGTGCAG”, for which the binding signal is 4190 fluorescence intensity (a.u.).

As for “TCCAACGGCTGGAGGTGGGAGACGACCGACAGGTGGGGCCCGGAGTCACCTAGTGCAG”, the binding signal was 3880 fluorescence intensity (a.u.).

In the case of “CCTCAAACCCGAGGCCGAAGCTGACGCGTGCCGTGGTGACCGGAGTCACCTAGTGCAG”, the binding signal is 4650 fluorescence intensity (a.u.).

For “GTTGTATGCTGATATTGTGTCATCCCTTAGTACAAACACGCGGAGTCACCTAGTGCAG”, the binding signal was 3640 fluorescence intensity (a.u.).

On to “CTCTGTCAGGTTGTGTGACCCATCAGTTTCTCTCCGTACTCGGAGTCACCTAGTGCAG”, for which the binding signal was 4390 fluorescence intensity (a.u.).

Regarding “AATGTTTACTAGGCTATGTTGCATGATGCAACCAAGAGATCGGAGTCACCTAGTGCAG”, the binding signal was 15100 fluorescence intensity (a.u.).

Turning to “AGCTTTTGGCTTCTCCTATAGCCTCTTTTGACATCATATCCGGAGTCACCTAGTGCAG”, the binding signal is 3230 fluorescence intensity (a.u.).

Regarding “AGTTGTGGGCATGAATCGGATCGTGTAGGATGGGGATAGGCGGAGTCACCTAGTGCAG”, the binding signal was 4540 fluorescence intensity (a.u.).

Regarding “CTTACGTACCATACGCACATCGTGTCATGAAGTCCGTACTCGGAGTCACCTAGTGCAG”, the binding signal is 3210 fluorescence intensity (a.u.).

“TTTTCTTCTATGCGTTGTGACCTGTCCATCTATGTACTGTCGGAGTCACCTAGTGCAG”: the binding signal was 5270 fluorescence intensity (a.u.).

With “GGCGGCTGCGTCAAGCTCAACCACAGCCACGACATCGCCACGGAGTCACCTAGTGCAG”, the binding signal was 5230 fluorescence intensity (a.u.).

Regarding “TGTTTTCTCTGTGATCGTGGTGTCAGCTTTGCTTGAATGTCGGAGTCACCTAGTGCAG”, the binding signal is 3900 fluorescence intensity (a.u.).

Consider “TTCGCTCCGACGAAACGCGCTGACGCTGACGGGGACAAGGCGGAGTCACCTAGTGCAG”, for which the binding signal is 8720 fluorescence intensity (a.u.).

On to “TGAAAATTGCTCCTTAATTGTTGTCACTTGTCAGTGTCACCGGAGTCACCTAGTGCAG”, for which the binding signal was 4330 fluorescence intensity (a.u.).

For “GCAGCGAGATCGAGATACCGAGAGACCACCTCACCTGCTTCGGAGTCACCTAGTGCAG”, the binding signal was 3460 fluorescence intensity (a.u.).

Take “CTTGAGATTGTAAACAGATGGCCATTGTCTGTTGTGTCAGCGGAGTCACCTAGTGCAG”: the binding signal was 3970 fluorescence intensity (a.u.).

On to “ATAATACATTAACATGCAGCATATCCTATAGGGGTTCTATCGGAGTCACCTAGTGCAG”, for which the binding signal was 19300 fluorescence intensity (a.u.).

On to “GAGAGTCGCCTTGTCAACATATGGCAGATGCAGCTGGTGCCGGAGTCACCTAGTGCAG”, for which the binding signal is 61100 fluorescence intensity (a.u.).

In the case of “GCGTCCTTCCAGTCGCCGGCTGGCATCACCGGCTTGTGCCCGGAGTCACCTAGTGCAG”, the binding signal was 4010 fluorescence intensity (a.u.).

“TTGTTCCTTGCTAATATATTGACGTGTAATTCTTTTATGCCGGAGTCACCTAGTGCAG”: the binding signal was 9690 fluorescence intensity (a.u.).

The values above are taken from publication PMC7819943, “Rice protein-binding microarrays: a tool to detect cis-acting elements near promoter regions in rice”.
